Data published in the M2OR odorant receptor database.
Residue numbers refer to the chain shown, from its start. This is a selection; strong and weak results do not stand in their true shares. The calls were merged from several studies; some rest on single wells. The list shows a part of the results.

Sequences of proteins named here, by UniProt entry; tags and fusion partners are left off. A change or cut given only in a name is not applied to a line headed by its entry.
UniProt Q8NGZ5: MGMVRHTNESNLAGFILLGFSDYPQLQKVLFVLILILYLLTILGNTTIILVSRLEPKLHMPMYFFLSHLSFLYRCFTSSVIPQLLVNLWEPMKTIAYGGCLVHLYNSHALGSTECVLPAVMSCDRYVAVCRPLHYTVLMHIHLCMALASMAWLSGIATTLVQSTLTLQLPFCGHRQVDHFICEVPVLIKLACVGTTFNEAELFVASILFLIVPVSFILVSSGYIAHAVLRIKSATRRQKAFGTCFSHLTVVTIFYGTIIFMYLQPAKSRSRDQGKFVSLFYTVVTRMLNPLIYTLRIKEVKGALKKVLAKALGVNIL

Assays:
Details in all cases: stereoisomer not certain
OR2C3 = tested on: T1, OR2C3
T1 sequence (whole entry): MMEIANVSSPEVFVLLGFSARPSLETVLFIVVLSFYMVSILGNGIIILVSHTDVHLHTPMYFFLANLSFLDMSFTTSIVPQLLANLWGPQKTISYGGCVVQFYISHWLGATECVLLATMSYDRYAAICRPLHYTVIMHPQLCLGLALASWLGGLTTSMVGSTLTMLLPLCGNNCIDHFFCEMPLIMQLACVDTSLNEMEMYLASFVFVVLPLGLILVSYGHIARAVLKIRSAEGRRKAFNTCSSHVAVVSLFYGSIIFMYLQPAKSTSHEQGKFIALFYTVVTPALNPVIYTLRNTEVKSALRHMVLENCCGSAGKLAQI
Outline: (§1)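 Transient luciferase assays in mammalian cell lines were common, though methods varied by source. The values come from published papers and their supplementary material, with extra details from the original authors when needed. Responsive refers to a measured signal the original authors judged statistically different from baseline, and non-responsive (inactive) to the remainder.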

OR2D2 (Homo sapiens) = biological target: T2, OR2D2 (Homo sapiens) (UniProt Q9H210)
T2 sequence (whole entry): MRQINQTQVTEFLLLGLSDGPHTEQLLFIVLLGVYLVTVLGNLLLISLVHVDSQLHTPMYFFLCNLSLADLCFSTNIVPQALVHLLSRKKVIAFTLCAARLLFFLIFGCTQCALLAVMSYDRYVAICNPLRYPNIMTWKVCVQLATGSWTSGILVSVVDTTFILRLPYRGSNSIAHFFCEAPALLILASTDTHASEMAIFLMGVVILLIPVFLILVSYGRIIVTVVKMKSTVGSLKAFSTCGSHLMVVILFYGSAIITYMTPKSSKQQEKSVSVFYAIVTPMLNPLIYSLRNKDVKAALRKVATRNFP
Outline: as §1

OR2D3 = tested on: T3, OR2D3
T3 sequence (whole entry): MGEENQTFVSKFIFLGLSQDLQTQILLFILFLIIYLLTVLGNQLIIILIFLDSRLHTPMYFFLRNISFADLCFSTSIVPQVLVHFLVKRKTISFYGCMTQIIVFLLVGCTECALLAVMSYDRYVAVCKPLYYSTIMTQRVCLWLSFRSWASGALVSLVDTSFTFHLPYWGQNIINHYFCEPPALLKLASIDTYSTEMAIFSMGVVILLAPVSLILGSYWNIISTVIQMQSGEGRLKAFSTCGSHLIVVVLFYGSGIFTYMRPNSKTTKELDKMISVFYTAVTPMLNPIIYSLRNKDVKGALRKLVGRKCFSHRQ
Outline: as §1

OR2F1 (Homo sapiens) = biological target: T4, OR2F1 (Homo sapiens) (UniProt Q13607)
T4 sequence (whole entry): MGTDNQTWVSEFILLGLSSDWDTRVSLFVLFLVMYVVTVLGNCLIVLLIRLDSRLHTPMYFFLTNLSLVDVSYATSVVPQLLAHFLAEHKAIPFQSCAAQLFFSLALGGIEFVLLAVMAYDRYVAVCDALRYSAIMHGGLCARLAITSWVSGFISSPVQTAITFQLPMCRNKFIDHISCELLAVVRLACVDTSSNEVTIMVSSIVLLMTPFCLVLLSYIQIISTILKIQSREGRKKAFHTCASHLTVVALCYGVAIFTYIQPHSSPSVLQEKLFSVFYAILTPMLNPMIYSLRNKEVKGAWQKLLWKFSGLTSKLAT
Outline: as §1

OR2F2 = tested on: T5, OR2F2
T5 sequence (whole entry): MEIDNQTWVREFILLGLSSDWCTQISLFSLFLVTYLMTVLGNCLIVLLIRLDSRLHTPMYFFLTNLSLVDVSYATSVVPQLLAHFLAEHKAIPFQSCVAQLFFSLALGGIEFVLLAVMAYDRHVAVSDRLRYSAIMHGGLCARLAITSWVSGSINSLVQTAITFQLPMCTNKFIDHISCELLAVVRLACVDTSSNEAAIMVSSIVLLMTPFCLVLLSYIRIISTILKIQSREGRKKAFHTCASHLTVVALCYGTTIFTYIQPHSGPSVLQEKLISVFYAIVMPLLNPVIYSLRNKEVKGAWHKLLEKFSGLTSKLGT
Outline: as §1

OR2G2 [1] = tested on: T6, OR2G2
T6 sequence (whole entry): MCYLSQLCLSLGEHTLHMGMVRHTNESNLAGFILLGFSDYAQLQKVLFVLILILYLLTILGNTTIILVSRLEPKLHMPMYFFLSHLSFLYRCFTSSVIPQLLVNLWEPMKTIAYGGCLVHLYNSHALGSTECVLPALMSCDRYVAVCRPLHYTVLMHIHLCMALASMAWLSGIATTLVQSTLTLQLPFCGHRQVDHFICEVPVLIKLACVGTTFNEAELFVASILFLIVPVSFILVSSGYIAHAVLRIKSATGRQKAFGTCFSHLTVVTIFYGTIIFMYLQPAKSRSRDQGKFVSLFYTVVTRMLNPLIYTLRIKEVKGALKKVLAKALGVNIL
Outline: as §1

OR2G2 [2] = tested on: T7, OR2G2; remark: listed apart in the source
T7 sequence (whole entry): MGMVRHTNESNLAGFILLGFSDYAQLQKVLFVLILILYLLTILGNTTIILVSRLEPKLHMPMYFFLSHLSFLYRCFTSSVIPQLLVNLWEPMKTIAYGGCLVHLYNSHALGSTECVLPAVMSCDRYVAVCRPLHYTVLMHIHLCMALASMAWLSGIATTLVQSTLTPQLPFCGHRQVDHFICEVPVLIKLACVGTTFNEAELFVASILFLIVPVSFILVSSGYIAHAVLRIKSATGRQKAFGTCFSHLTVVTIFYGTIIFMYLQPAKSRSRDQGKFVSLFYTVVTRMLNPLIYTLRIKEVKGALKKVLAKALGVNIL
Outline: as §1

OR2G3 (Homo sapiens) = biological target: T8, OR2G3 (Homo sapiens) (UniProt Q8NGZ4)
T8 sequence (whole entry): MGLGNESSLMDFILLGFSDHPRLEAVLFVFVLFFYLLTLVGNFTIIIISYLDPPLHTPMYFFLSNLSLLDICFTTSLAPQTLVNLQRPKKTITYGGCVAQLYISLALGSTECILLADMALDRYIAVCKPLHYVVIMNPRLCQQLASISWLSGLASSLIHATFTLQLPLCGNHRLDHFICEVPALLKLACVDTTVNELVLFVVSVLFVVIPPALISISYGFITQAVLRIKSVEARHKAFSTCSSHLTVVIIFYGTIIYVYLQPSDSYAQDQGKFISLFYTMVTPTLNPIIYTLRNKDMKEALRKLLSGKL
Outline: as §1

OR2G3 = tested on: T9, OR2G3
T9 sequence (whole entry): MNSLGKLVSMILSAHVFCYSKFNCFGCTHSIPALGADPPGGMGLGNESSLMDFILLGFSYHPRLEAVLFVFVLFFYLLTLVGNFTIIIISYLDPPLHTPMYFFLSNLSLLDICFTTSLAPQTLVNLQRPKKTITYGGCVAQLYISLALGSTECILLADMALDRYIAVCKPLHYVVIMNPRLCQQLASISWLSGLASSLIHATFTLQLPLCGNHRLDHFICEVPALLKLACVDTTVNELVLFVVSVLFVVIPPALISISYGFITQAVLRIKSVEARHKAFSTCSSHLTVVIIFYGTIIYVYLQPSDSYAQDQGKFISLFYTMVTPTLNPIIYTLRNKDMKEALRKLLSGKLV
Outline: as §1

OR2G6 (Homo sapiens) = biological target: T10, OR2G6 (Homo sapiens) (UniProt Q5TZ20)
T10 sequence (whole entry): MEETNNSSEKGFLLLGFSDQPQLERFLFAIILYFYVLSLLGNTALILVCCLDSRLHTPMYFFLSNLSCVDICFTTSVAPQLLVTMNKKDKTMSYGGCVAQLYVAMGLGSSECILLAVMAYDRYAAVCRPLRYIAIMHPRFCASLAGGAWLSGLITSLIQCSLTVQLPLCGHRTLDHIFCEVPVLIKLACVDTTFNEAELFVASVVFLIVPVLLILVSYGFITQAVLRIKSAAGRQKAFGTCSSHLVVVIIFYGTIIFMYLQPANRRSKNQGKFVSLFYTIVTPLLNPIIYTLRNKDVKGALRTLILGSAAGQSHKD
Outline: as §1

OR2H1 (Homo sapiens) = biological target: T11, OR2H1 (Homo sapiens) (UniProt Q9GZK4)
T11 sequence (whole entry): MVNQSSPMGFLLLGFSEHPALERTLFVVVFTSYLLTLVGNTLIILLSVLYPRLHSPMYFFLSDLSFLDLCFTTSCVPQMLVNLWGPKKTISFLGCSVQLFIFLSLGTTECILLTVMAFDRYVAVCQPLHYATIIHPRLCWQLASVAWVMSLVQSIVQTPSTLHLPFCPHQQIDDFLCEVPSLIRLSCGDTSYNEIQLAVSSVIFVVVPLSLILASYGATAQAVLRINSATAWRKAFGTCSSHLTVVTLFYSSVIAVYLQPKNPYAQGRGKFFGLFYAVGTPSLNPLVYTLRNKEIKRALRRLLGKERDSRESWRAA
Outline: as §1

OR2H2 = tested on: T12, OR2H2
T12 sequence (whole entry): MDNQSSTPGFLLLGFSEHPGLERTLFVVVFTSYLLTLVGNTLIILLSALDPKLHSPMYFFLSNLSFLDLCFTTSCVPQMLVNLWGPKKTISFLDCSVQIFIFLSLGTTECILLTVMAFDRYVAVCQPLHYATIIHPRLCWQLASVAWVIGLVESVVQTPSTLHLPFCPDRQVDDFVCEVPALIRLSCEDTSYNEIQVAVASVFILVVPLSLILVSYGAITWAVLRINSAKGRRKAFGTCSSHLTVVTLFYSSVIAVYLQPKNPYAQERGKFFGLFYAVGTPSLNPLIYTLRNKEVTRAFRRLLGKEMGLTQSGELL
Outline: as §1

OR2G2 (Homo sapiens) = biological target: T13, OR2G2 (Homo sapiens) (UniProt Q8NGZ5)
T13 sequence (whole entry): T7 sequence (whole entry) with A24P, P167L, G236R
Outline: as §1

Measured: odorant receptor agonist call

CC(=O)OCC=C(C)CCC=C(C)C
active: OR2C3 | OR2H2
not listed: OR2G2 (Homo sapiens)
inactive: all other assays above

C=CC(C)(O)CCC=C(C)C (configuration not stated)
inactive: all assays above

CC1=CCC(C(C)(C)O)CC1 (configuration not stated)
not listed: OR2G2 (Homo sapiens)
inactive: all other assays above

CCCCCCCOC(C)=O
not listed: OR2G2 (Homo sapiens)
inactive: all other assays above

COC(=O)c1ccccc1O
not listed: OR2G2 (Homo sapiens)
inactive: all other assays above

O=C1CCCCCCCCCCCC(=O)OCCO1
active: OR2D2 (Homo sapiens)
not listed: OR2G2 (Homo sapiens)
inactive: all other assays above

CCCCCCCCOC(C)=O
not listed: OR2G2 (Homo sapiens)
inactive: all other assays above

CCCCO
not listed: OR2G2 (Homo sapiens)
inactive: all other assays above

COc1ccccc1O
not listed: OR2G2 (Homo sapiens)
inactive: all other assays above

CC(=O)C(C)=O
not listed: OR2G2 (Homo sapiens)
inactive: all other assays above

CC(=O)OC1CC2CCC1(C)C2(C)C (configuration not stated)
inactive: all assays above

CC(=O)OC(C)(C)C1CC=C(C)CC1 (configuration not stated)
inactive: all assays above
